Patent US11780893B2, “Kv1.3 blockers” (Zealand Pharma A/S, priority 2019, dated 2023)
pIC50: −log10 of the molar value. Some results were stated once for a whole list of compounds, not compound by compound. Bridge positions count the residues as written; N and C are the ends. Square brackets hold non-standard residues; d marks the D form. Peptide text beside a SMILES is read from it. Phe(4-NO2) = N[C@@H](Cc1ccc([N+](=O)[O-])cc1)C(=O)O; Phe(4-F) = N[C@@H](Cc1ccc(F)cc1)C(=O)O; Phe(4-Me) = Cc1ccc(C[C@H](N)C(=O)O)cc1; Nle = CCCC[C@H](N)C(=O)O

Amino acid sequences for entries named in this document (tags omitted).
UniProt P22001, whole entry: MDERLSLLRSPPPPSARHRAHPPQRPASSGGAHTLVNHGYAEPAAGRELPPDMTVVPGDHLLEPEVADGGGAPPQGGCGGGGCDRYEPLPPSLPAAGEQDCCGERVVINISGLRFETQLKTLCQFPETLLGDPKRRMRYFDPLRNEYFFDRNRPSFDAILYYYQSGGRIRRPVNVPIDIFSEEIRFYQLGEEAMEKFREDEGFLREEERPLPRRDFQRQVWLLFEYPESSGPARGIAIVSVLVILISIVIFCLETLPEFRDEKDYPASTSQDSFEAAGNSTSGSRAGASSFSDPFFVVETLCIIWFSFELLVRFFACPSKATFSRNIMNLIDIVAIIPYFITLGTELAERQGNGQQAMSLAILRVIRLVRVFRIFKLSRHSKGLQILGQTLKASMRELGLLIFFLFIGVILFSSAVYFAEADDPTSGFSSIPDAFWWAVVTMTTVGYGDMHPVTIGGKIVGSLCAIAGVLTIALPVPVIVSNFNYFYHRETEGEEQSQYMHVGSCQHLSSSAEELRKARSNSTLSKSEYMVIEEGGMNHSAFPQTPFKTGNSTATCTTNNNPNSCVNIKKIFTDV

Biological target: T1, human Kv1.3 voltage-gated K+ channel (Homo sapiens, UniProt P22001)
T1 construct: host or cells: CHO-DUKX
Format: cell-based

CCCC[C@H](NC(=O)[C@H](CC(=O)O)NC(=O)[C@H](CCCC)NC(=O)[C@@H](N)CO)C(=O)N[C@@H](CCCNC(=N)N)C(=O)N[C@H]1CSSC[C@@H]2NC(=O)[C@H](CCCCN)NC(=O)CNC(=O)[C@H](Cc3ccccc3)NC(=O)[C@H]([C@@H](C)CC)NC(=O)[C@H](CO)NC(=O)CNC(=O)[C@H]([C@@H](C)CC)NC(=O)[C@H](C)NC(=O)[C@H](CCCCN)NC(=O)[C@H](CC(C)C)NC(=O)[C@@H]3CSSC[C@@H](C(=O)N[C@@H](Cc4ccc(O)cc4)C(=O)N4CCC[C@H]4C(=O)N[C@@H](CCCNC(=N)N)C(N)=O)NC(=O)[C@H](CCCCN)NC(=O)[C@H](CSSC[C@H](NC(=O)[C@H](CCC(=O)O)NC(=O)[C@H](C(C)C)NC(=O)[C@H](C(C)C)NC(=O)[C@H](C)NC(=O)[C@H](CO)NC1=O)C(=O)N[C@@H](CCCCN)C(=O)N[C@@H](CCC(N)=O)C(=O)N[C@@H](CCCCN)C(=O)N3)NC(=O)[C@H](CCCCN)NC(=O)[C@H](CCCCN)NC(=O)[C@H](CC(N)=O)NC(=O)[C@H](CCSC)NC2=O [Compound 90] (H-S[Nle]D[Nle]RCSAVVECKQKCLKAIGSIFGKCMNKKCKCYPR-NH2; disulfide 6-27, 12-32, 16-34)
pIC50: ≥ 9.52

CCCC[C@H](NC(=O)[C@H](CC(=O)O)NC(=O)[C@H](CCCC)NC(=O)[C@@H](N)CO)C(=O)N[C@@H](CCCNC(=N)N)C(=O)N[C@H]1CSSC[C@@H]2NC(=O)[C@H](CCCCN)NC(=O)CNC(=O)[C@H](Cc3ccccc3)NC(=O)[C@H]([C@@H](C)CC)NC(=O)[C@H](CO)NC(=O)CNC(=O)[C@H]([C@@H](C)CC)NC(=O)[C@H](C)NC(=O)[C@H](CCCCN)NC(=O)[C@H](CC(C)C)NC(=O)[C@@H]3CSSC[C@@H](C(=O)N[C@@H](Cc4ccc(F)cc4)C(=O)N4CCC[C@H]4C(=O)N[C@@H](CCCNC(=N)N)C(N)=O)NC(=O)[C@H](CCCCN)NC(=O)[C@H](CSSC[C@H](NC(=O)[C@H](CCC(=O)O)NC(=O)[C@H](C(C)C)NC(=O)[C@H](CO)NC(=O)[C@H](C)NC(=O)[C@H](CO)NC1=O)C(=O)N[C@@H](CCCCN)C(=O)N[C@@H](CCC(N)=O)C(=O)N[C@@H](CCCCN)C(=O)N3)NC(=O)[C@H](CCCCN)NC(=O)[C@H](CCCCN)NC(=O)[C@H](CC(N)=O)NC(=O)[C@H](CCSC)NC2=O [Compound 91] (H-S[Nle]D[Nle]RCSASVECKQKCLKAIGSIFGKCMNKKCKC[Phe(4-F)]PR-NH2; disulfide 6-27, 12-32, 16-34)
pIC50: ≥ 9.82

CCCC[C@H](NC(=O)[C@H](CC(=O)O)NC(=O)[C@H](CCCC)NC(=O)[C@@H](N)CO)C(=O)N[C@@H](CCCNC(=N)N)C(=O)N[C@H]1CSSC[C@@H]2NC(=O)[C@H](CCCCN)NC(=O)CNC(=O)[C@H](Cc3ccccc3)NC(=O)[C@H]([C@@H](C)CC)NC(=O)[C@H](CO)NC(=O)CNC(=O)[C@H]([C@@H](C)CC)NC(=O)[C@H](C)NC(=O)[C@H](CCCCN)NC(=O)[C@H](CC(C)C)NC(=O)[C@@H]3CSSC[C@@H](C(=O)N[C@@H](Cc4ccc([N+](=O)[O-])cc4)C(=O)N4CCC[C@H]4C(=O)N[C@@H](CCCNC(=N)N)C(N)=O)NC(=O)[C@H](CCCCN)NC(=O)[C@H](CSSC[C@H](NC(=O)[C@H](CCC(=O)O)NC(=O)[C@H](C(C)C)NC(=O)[C@H](CO)NC(=O)[C@H](C)NC(=O)[C@H](CO)NC1=O)C(=O)N[C@@H](CCCCN)C(=O)N[C@@H](CCC(N)=O)C(=O)N[C@@H](CCCCN)C(=O)N3)NC(=O)[C@H](CCCCN)NC(=O)[C@H](CCCCN)NC(=O)[C@H](CC(N)=O)NC(=O)[C@H](CCSC)NC2=O [Compound 92] (H-S[Nle]D[Nle]RCSASVECKQKCLKAIGSIFGKCMNKKCKC[Phe(4-NO2)]PR-NH2; disulfide 6-27, 12-32, 16-34)
pIC50: ≥ 9.52

CCCC[C@H](NC(=O)[C@H](CC(=O)O)NC(=O)[C@H](CCCC)NC(=O)[C@@H](N)CO)C(=O)N[C@@H](CCCNC(=N)N)C(=O)N[C@H]1CSSC[C@@H]2NC(=O)[C@H](CCCCN)NC(=O)CNC(=O)[C@H](Cc3ccccc3)NC(=O)[C@H]([C@@H](C)CC)NC(=O)[C@H](CO)NC(=O)CNC(=O)[C@H]([C@@H](C)CC)NC(=O)[C@H](C)NC(=O)[C@H](CCCCN)NC(=O)[C@H](CC(C)C)NC(=O)[C@@H]3CSSC[C@@H](C(=O)N[C@@H](Cc4ccc(C)cc4)C(=O)N4CCC[C@H]4C(=O)N[C@@H](CCCNC(=N)N)C(N)=O)NC(=O)[C@H](CCCCN)NC(=O)[C@H](CSSC[C@H](NC(=O)[C@H](CCC(=O)O)NC(=O)[C@H](C(C)C)NC(=O)[C@H](CO)NC(=O)[C@H](C)NC(=O)[C@H](CO)NC1=O)C(=O)N[C@@H](CCCCN)C(=O)N[C@@H](CCC(N)=O)C(=O)N[C@@H](CCCCN)C(=O)N3)NC(=O)[C@H](CCCCN)NC(=O)[C@H](CCCCN)NC(=O)[C@H](CC(N)=O)NC(=O)[C@H](CCSC)NC2=O [Compound 93] (H-S[Nle]D[Nle]RCSASVECKQKCLKAIGSIFGKCMNKKCKC[Phe(4-Me)]PR-NH2; disulfide 6-27, 12-32, 16-34)
pIC50: ≥ 9.82

CCCC[C@@H]1NC(=O)[C@@H]2CSSC[C@H](NC(=O)[C@H](CCCNC(=N)N)NC(=O)[C@H](CCCC)NC(=O)[C@H](CC(=O)O)NC(=O)[C@@H](N)CCCC)C(=O)N[C@@H](CO)C(=O)N[C@@H](C)C(=O)N[C@@H](CO)C(=O)N[C@@H](C(C)C)C(=O)N[C@@H](CCC(=O)O)C(=O)N[C@H]3CSSC[C@H](NC(=O)[C@H](CCCCN)NC(=O)[C@H](CCCCN)NC(=O)[C@H](CC(N)=O)NC1=O)C(=O)N[C@@H](CCCCN)C(=O)N[C@H](C(=O)N[C@@H](Cc1ccc(O)cc1)C(=O)N1CCC[C@H]1C(=O)N[C@@H](CCCNC(=N)N)C(=O)O)CSSC[C@H](NC(=O)[C@H](CCCCN)NC(=O)[C@H](CCC(N)=O)NC(=O)[C@H](CCCCN)NC3=O)C(=O)N[C@@H](CC(C)C)C(=O)N[C@@H](CCCCN)C(=O)N[C@@H](C)C(=O)N[C@@H]([C@@H](C)CC)C(=O)NCC(=O)N[C@@H](CO)C(=O)N[C@@H]([C@@H](C)CC)C(=O)N[C@@H](Cc1ccccc1)C(=O)NCC(=O)N[C@@H](CCCCN)C(=O)N2 [Compound 94] (H-[Nle]D[Nle]RCSASVECKQKCLKAIGSIFGKC[Nle]NKKCKCYPR-OH; disulfide 5-26, 11-31, 15-33)
pIC50: ≥ 9.52

CCCC[C@@H]1NC(=O)[C@@H]2CSSC[C@H](NC(=O)[C@H](CCCNC(=N)N)NC(=O)[C@H](CCCC)NC(=O)[C@H](CC(=O)O)NC(=O)[C@@H](NC(=O)[C@@H](N)CC(N)=O)[C@@H](C)CC)C(=O)N[C@@H](CO)C(=O)N[C@@H](C)C(=O)N[C@@H](CO)C(=O)N[C@@H](C(C)C)C(=O)N[C@@H](CCC(=O)O)C(=O)N[C@H]3CSSC[C@H](NC(=O)[C@H](CCCCN)NC(=O)[C@H](CCCCN)NC(=O)[C@H](CC(N)=O)NC1=O)C(=O)N[C@@H](CCCCN)C(=O)N[C@H](C(=O)N[C@@H](Cc1ccc(O)cc1)C(=O)N1CCC[C@H]1C(=O)N[C@@H](CCCNC(=N)N)C(=O)O)CSSC[C@H](NC(=O)[C@H](CCCCN)NC(=O)[C@H](CCC(N)=O)NC(=O)[C@H](CCCCN)NC3=O)C(=O)N[C@@H](CC(C)C)C(=O)N[C@@H](CCCCN)C(=O)N[C@@H](C)C(=O)N[C@@H]([C@@H](C)CC)C(=O)NCC(=O)N[C@@H](CO)C(=O)N[C@@H]([C@@H](C)CC)C(=O)N[C@@H](Cc1ccccc1)C(=O)NCC(=O)N[C@@H](CCCCN)C(=O)N2 [Compound 95] (H-NID[Nle]RCSASVECKQKCLKAIGSIFGKC[Nle]NKKCKCYPR-OH; disulfide 6-27, 12-32, 16-34)
pIC50: ≥ 9.52

CCCC[C@@H]1NC(=O)[C@@H]2CSSC[C@H](NC(=O)[C@H](CCCNC(=N)N)NC(=O)[C@H](CCCC)NC(=O)[C@H](CCC(=O)O)NC(=O)[C@@H](NC(=O)[C@@H]3CCCN3)[C@@H](C)CC)C(=O)N[C@@H](CO)C(=O)N[C@@H](C)C(=O)N[C@@H](CO)C(=O)N[C@@H](C(C)C)C(=O)N[C@@H](CCC(=O)O)C(=O)N[C@H]3CSSC[C@H](NC(=O)[C@H](CCCCN)NC(=O)[C@H](CCCCN)NC(=O)[C@H](CC(N)=O)NC1=O)C(=O)N[C@@H](CCCCN)C(=O)N[C@H](C(=O)N[C@@H](Cc1ccc(O)cc1)C(=O)N1CCC[C@H]1C(=O)N[C@@H](CCCNC(=N)N)C(=O)O)CSSC[C@H](NC(=O)[C@H](CCCCN)NC(=O)[C@H](CCC(N)=O)NC(=O)[C@H](CCCCN)NC3=O)C(=O)N[C@@H](CC(C)C)C(=O)N[C@@H](CCCCN)C(=O)N[C@@H](C)C(=O)N[C@@H]([C@@H](C)CC)C(=O)NCC(=O)N[C@@H](CO)C(=O)N[C@@H]([C@@H](C)CC)C(=O)N[C@@H](Cc1ccccc1)C(=O)NCC(=O)N[C@@H](CCCCN)C(=O)N2 [Compound 96] (H-PIE[Nle]RCSASVECKQKCLKAIGSIFGKC[Nle]NKKCKCYPR-OH; disulfide 6-27, 12-32, 16-34)
pIC50: ≥ 9.82

CCCC[C@H](NC(=O)[C@@H]1CCCN1)C(=O)N[C@@H](CCC(=O)O)C(=O)N[C@@H](CCCC)C(=O)N[C@@H](CCCNC(=N)N)C(=O)N[C@H]1CSSC[C@@H]2NC(=O)[C@H](CCCCN)NC(=O)CNC(=O)[C@H](Cc3ccccc3)NC(=O)[C@H]([C@@H](C)CC)NC(=O)[C@H](CO)NC(=O)CNC(=O)[C@H]([C@@H](C)CC)NC(=O)[C@H](C)NC(=O)[C@H](C)NC(=O)[C@H](CC(C)C)NC(=O)[C@@H]3CSSC[C@@H](C(=O)N[C@@H](Cc4ccc(O)cc4)C(=O)N4CCC[C@H]4C(=O)N[C@@H](CCCNC(=N)N)C(N)=O)NC(=O)[C@H](CCCCN)NC(=O)[C@H](CSSC[C@H](NC(=O)[C@H](CCC(=O)O)NC(=O)[C@H](C(C)C)NC(=O)[C@H](CO)NC(=O)[C@H](C)NC(=O)[C@H](CO)NC1=O)C(=O)N[C@@H](CCCCN)C(=O)N[C@@H](CCC(N)=O)C(=O)N[C@@H](CCCCN)C(=O)N3)NC(=O)[C@H](CCCCN)NC(=O)[C@H](CCCCN)NC(=O)[C@H](CC(N)=O)NC(=O)[C@H](CCCC)NC2=O [Compound 98] (H-P[Nle]E[Nle]RCSASVECKQKCLAAIGSIFGKC[Nle]NKKCKCYPR-NH2; disulfide 6-27, 12-32, 16-34)
pIC50: ≥ 9.82
